Toxoplasma: 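Assay of Toxoplasma gondii numbers, read through their beta-galactosidase reporter with a colour substrate. Compounds at 10 µM. Higher reads as fewer parasites (inferred from which compounds were picked for retests). Of about 67,000 compounds tested this way, about 260 (0.38%) reached 50% or more in at least one test.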
Leishmania in macrophages: 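Cell assay of Leishmania donovani living inside macrophages; the read-out is not stated. Tested at 30 µM. Direction is inferred from retests: higher values go with stronger inhibition. Size under these conditions: about 69,000 compounds, about 1,000 of them at 50% or above in at least one test.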
TcHisRS: 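Enzyme assay of histidyl-tRNA synthetase; the read-out is not stated. Target: Histidine-tRNA ligase, Trypanosoma cruzi CL Brener (UniProt Q4DA54). Compounds at 30 µM. The record gives no direction; compounds that gave an IC50 in retests scored well above the rest, so higher reads as stronger inhibition. About 69,000 compounds were tested under these conditions; 0.045% (about 31) showed 50% or more at least once.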
LiHisRS: 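Enzyme assay of histidyl-tRNA synthetase; the read-out is not stated. Target: Histidine-tRNA ligase, Leishmania infantum (UniProt A4I591). Compounds at 30 µM. Higher reads as stronger inhibition (inferred: compounds with an IC50 in retests scored well above the rest). The assay is labelled LdHisRS but filed under L. infantum. Of about 69,000 compounds tested this way, about 410 (0.6%) reached 50% or more in at least one test.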
ClpP1P2: 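ClpP1P2, Mycobacterium tuberculosis (UniProt P9WPC5 and UniProt P9WPC3). Protease assay of ClpP1P2, read by the AMC dye that it sets free. Tested at 50 µM. Direction is inferred from only a few compounds that gave an IC50; most scored high, so higher reads as stronger inhibition. Most other retested compounds had strongly negative values. Of about 69,000 compounds tested this way, about 10 (0.015%) reached 50% or more in at least one test.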
T. brucei: 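Whole-parasite assay of Trypanosoma brucei over 72 hours; the read-out is not stated. Tested at 30 µM. The record gives no direction; compounds that gave an IC50 in retests scored well above the rest, so higher reads as stronger inhibition. Values scatter widely below zero; nearly all retest evidence comes from the higher of the two concentrations used. Of about 64,000 compounds tested this way, about 940 (1.5%) reached 50% or more in at least one test.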

The chains behind the UniProt entries cited, without tags or fusion partners. Residues count along the entry.
UniProt Q4DA54, 1-478: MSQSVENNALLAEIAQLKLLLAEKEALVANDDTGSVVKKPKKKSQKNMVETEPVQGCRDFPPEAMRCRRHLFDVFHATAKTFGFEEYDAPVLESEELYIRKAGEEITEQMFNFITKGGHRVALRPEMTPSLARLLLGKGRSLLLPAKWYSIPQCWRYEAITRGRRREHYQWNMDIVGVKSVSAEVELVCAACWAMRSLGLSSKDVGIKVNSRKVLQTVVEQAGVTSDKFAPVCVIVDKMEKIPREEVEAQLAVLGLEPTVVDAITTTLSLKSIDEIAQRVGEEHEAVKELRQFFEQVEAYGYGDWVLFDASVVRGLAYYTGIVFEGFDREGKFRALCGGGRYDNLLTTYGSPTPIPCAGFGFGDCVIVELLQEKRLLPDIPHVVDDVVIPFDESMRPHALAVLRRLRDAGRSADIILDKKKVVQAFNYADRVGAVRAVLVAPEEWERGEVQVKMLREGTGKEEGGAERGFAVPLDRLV
UniProt A4I591, 1-473: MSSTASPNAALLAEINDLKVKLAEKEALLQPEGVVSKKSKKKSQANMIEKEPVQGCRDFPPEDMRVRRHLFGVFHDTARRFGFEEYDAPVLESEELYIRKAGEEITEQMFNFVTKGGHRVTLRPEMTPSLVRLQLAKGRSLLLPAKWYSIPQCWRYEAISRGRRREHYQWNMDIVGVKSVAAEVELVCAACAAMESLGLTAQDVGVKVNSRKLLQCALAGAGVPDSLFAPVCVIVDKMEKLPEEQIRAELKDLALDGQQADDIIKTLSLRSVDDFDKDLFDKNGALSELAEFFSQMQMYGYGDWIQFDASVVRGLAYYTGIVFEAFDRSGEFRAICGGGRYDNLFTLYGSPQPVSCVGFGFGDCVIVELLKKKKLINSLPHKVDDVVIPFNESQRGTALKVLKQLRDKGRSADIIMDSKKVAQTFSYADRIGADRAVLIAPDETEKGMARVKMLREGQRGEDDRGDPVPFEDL
UniProt P9WPC5, whole entry: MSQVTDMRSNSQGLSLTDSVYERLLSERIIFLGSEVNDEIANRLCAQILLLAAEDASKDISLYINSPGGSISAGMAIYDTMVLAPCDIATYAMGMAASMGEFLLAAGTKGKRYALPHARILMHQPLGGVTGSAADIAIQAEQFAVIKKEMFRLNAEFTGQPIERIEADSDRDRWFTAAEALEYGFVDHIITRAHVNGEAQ
UniProt P9WPC3, whole entry partner: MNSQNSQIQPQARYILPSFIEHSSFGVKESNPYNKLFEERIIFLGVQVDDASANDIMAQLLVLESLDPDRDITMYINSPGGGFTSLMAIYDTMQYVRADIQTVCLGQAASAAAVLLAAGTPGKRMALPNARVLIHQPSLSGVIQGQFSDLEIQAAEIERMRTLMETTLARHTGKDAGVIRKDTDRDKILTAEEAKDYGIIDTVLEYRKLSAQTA

The filed quantity is “Percent Effect” (%). The controls that fix the scale are not given in the record; negative values are as filed. This is an unselected part of the compounds tested. A dash means the value is not listed here; it may have been measured.

compound,Toxoplasma,Leishmania in macrophages,TcHisRS,LiHisRS,ClpP1P2,T. brucei
CCC[C@@H]1CN(c2ncnc3sccc23)C[C@H]1NS(C)(=O)=O,4.59,19.66,2.762,8.333,0.4882,4.606
CC(=O)N1CCCC(C(=O)NCCOc2cc(C)cc(C)c2)C1 (centres unmarked),-14.55,2.282,5.714,17.31,4.874,-
O=C(c1ccco1)N1CC[C@H]2C[C@@H](c3nccs3)O[C@@H]2C1,-,-,9.756,28.21,-6.324,-
CCN(CC)C1CCN(C(=O)Nc2cc(F)c(OC)c(F)c2)C1 (centres unmarked),5.776,13.3,0,15.69,-7.193,-46.45
Cc1nn(C)c2ncc(S(=O)(=O)N3CCCC(C)CC3)cc12 (centres unmarked),4.32,-1.786,1.63,8,-4.081,-12.1
Cc1nc(CCNc2nc(N(C)C)nc3c2CCCC3)cc(=O)[nH]1,-3.76,14.17,2.597,0,1.552,-2.569
COCCN1CCC2(CCC(=O)N2Cc2csc(C)n2)CC1,-,-,3.81,1.389,-20.7,-
O=C(NC1CCN(c2ncccc2F)C1)c1cccc(-n2ccnc2)c1 (centres unmarked),4.091,10.36,8.333,-2.703,-4.819,7.946
Cn1cnc(S(=O)(=O)N2CC3(CCN(CC4CC4)C3)C2)c1.O=C(O)C(F)(F)F.O=C(O)C(F)(F)F,-25.05,26.43,-,-,-,-26
Nc1nccc(C2CCN(c3cnccn3)C2)n1 (centres unmarked),-2.618,-20.98,4.857,5.369,-41.6,3.187
CCCc1noc2ncc(C(=O)N3CCCC3c3cnn(C)c3)cc12 (centres unmarked),-14.89,-17.43,2.882,8.929,-32.67,-4.109
[H][C@]12CN(C(=O)C3CC3)CCN1C[C@@H](CO)[C@@H]2c1ccccc1,-14.12,2.426,-,-,-,11.37
O=C(O)C(F)(F)F.O=C(O)C(F)(F)F.[H][C@@]12COC[C@]1(CNC(=O)c1ccco1)CN(Cc1ccncc1)C2,1.165,22.82,-,-,-,17.22
CCCn1ccnc1CN1C[C@@H](CN2CCCCC2)[C@@H](CO)C1,5.275,-36.72,2.5,7.547,-9.102,33.15
O=C(CCn1cncn1)N1CC[C@@H](c2ccc3ccccc3c2)[C@H](O)C1,10.54,26.47,3.279,19.3,-8.947,-95.43
Cc1cc(N2CCC3(CCCN(CCO)C3=O)C2)nc2cc(Cl)ccc12 (centres unmarked),-1.399,12.57,5.473,20.48,-14.17,2.248
Cc1cc(C2CCCN(C(=O)COc3ccc(F)cc3F)C2)n[nH]1 (centres unmarked),2.773,10.63,4.04,6.349,-0.6276,15.12
CCN1CCC2(C=C(C(=O)N(C)C)c3ccccc32)CC1,-,-,4.42,9.91,-6.84,-
c1ncn(CC2CCCN2Cc2cn3ccsc3n2)n1 (centres unmarked),16.92,8.747,0,2.128,-7.322,-15.62
COc1ccc(CN2CCn3cccc3C2C)cc1F (centres unmarked),-57.91,13.69,20,29.46,-7.301,11.74
CCN(CC)S(=O)(=O)N(C)Cc1ccncc1,0,17.99,9.244,5.263,4.198,-2.995
Cc1ncc(CN2CCCC(c3cc(C(F)(F)F)[nH]n3)C2)s1 (centres unmarked),-10.6,36.03,1.695,8.621,-12.65,10.6
COc1cc(C2SCC(=O)Nc3[nH]ncc32)c(OC)c2c1OCO2 (centres unmarked),-10.14,8.87,-0.5181,2.151,-7.595,5.203
Cc1ncsc1CN1C[C@@H]2COC[C@]2(C(=O)NC(C)C)C1,-,-,0,15,-5.57,-
Cc1cccc(NC(=O)N2CC(C(=O)NC(C)C)C3(CCOCC3)C2)c1 (centres unmarked),-7.471,22.5,9.244,17.43,12.48,31.81
CCc1cc(CNC(=O)c2cc(NC(=O)C(C)C)ccc2Cl)[nH]n1,5.732,17.74,1.19,4.651,-11.87,61.59
c1ccc2c(Cc3nnc([C@H]4CCNC4)o3)c[nH]c2c1,-2.256,22.8,3.483,8.108,-6.21,-22.75

Repeated from the top, 3 entries:

compound,Toxoplasma,Leishmania in macrophages,TcHisRS,LiHisRS,ClpP1P2,T. brucei
CCC[C@@H]1CN(c2ncnc3sccc23)C[C@H]1NS(C)(=O)=O,4.59,19.66,2.762,8.333,0.4882,4.606
CC(=O)N1CCCC(C(=O)NCCOc2cc(C)cc(C)c2)C1 (centres unmarked),-14.55,2.282,5.714,17.31,4.874,-
O=C(c1ccco1)N1CC[C@H]2C[C@@H](c3nccs3)O[C@@H]2C1,-,-,9.756,28.21,-6.324,-

The values are deposited in ChEMBL (CHEMBL3988442, “University of Dundee, Small-Polar-MMV Screening Library” (2021)).